# Screening data

Source: PubChem BioAssay AID504749 (NCATS, 2011).

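Malaria parasite (P. falciparum) lines kept in red blood cells; parasite DNA is measured by SYBR Green fluorescence after lysis, 72 h after compound addition.
Each compound was titrated across a series from about 0.000037 to 29 µM.
The number is the fitted AC50, the concentration giving a half-maximal change in signal; a lower value means higher potency, whether the curve shows a decrease or an increase.
Calls follow the curve class and fit quality: every row here is inconclusive, covering signal-raising curves and weak, poorly fitted, partial or highest-dose-only inhibition curves.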

Values are in nM.
Every entry below has the call inconclusive.
Only part of the assay is shown, chiefly results filed as inconclusive.
A potency from a partial, single-point or poor curve is only a rough figure.

| # | Compound | condition | fitted potency (nM) | curve |
|---|---|---|---|---|
| 1 | `N=C(N)c1ccc2cc(OC(=O)c3ccc(N=C(N)N)cc3)ccc2c1` | CP265 | 17782 | inhibitor, single point |
| 2 | `N=C(N)c1ccc2cc(OC(=O)c3ccc(N=C(N)N)cc3)ccc2c1` | CP252 | 6310 | inhibitor, partial curve |
| 3 | `N=C(N)c1ccc2cc(OC(=O)c3ccc(N=C(N)N)cc3)ccc2c1` | CP297 | 13459 | inhibitor, single point |
| 4 | `N=C(N)c1ccc2cc(OC(=O)c3ccc(N=C(N)N)cc3)ccc2c1` | CP238 | 6310 | inhibitor, partial curve |
| 5 | `N=C(N)c1ccc2cc(OC(=O)c3ccc(N=C(N)N)cc3)ccc2c1` | CP262 | 8492 | inhibitor, partial curve, poor fit |
| 6 | `N=C(N)c1ccc2cc(OC(=O)c3ccc(N=C(N)N)cc3)ccc2c1` | C2A | 11220 | inhibitor, single point |
| 7 | `N=C(N)c1ccc2cc(OC(=O)c3ccc(N=C(N)N)cc3)ccc2c1` | CP217 | 5012 | inhibitor, partial curve |
| 8 | `N=C(N)c1ccc2cc(OC(=O)c3ccc(N=C(N)N)cc3)ccc2c1` | ECU | 10000 | inhibitor, single point |
| 9 | `N=C(N)c1ccc2cc(OC(=O)c3ccc(N=C(N)N)cc3)ccc2c1` | CP215 | 13459 | inhibitor, partial curve |
| 10 | `N=C(N)c1ccc2cc(OC(=O)c3ccc(N=C(N)N)cc3)ccc2c1` | DIV17 | 8492 | inhibitor, partial curve |
| 11 | `N=C(N)c1ccc2cc(OC(=O)c3ccc(N=C(N)N)cc3)ccc2c1` | AA1029 | 8912 | inhibitor, partial curve |
| 12 | `Cc1ccc2c(c1)c1c3n2CCN[C@H]3CCC1` | ECU | 8912 | inhibitor, partial curve |
| 13 | `Cc1ccc2c(c1)c1c3n2CCN[C@H]3CCC1` | TAB109 | 7943 | inhibitor, partial curve |
| 14 | `Cc1ccc2c(c1)c1c3n2CCN[C@H]3CCC1` | CP194 | 4776 | inhibitor, partial curve, poor fit |
| 15 | `Cc1ccc2c(c1)c1c3n2CCN[C@H]3CCC1` | CP286 | 8912 | inhibitor, single point |
| 16 | `Cc1ccc2c(c1)c1c3n2CCN[C@H]3CCC1` | CP203 | 19011 | inhibitor, single point |
| 17 | `Cc1ccc2c(c1)c1c3n2CCN[C@H]3CCC1` | ICS | 5012 | inhibitor, partial curve, poor fit |
| 18 | `Cc1ccc2c(c1)c1c3n2CCN[C@H]3CCC1` | TAB165 | 11220 | inhibitor, single point |
| 19 | `Cc1ccc2c(c1)c1c3n2CCN[C@H]3CCC1` | PAD | 11220 | inhibitor, single point |
| 20 | `Cc1ccc2c(c1)c1c3n2CCN[C@H]3CCC1` | AA1029 | 11220 | inhibitor, single point |
| 21 | `Cc1ccc2c(c1)c1c3n2CCN[C@H]3CCC1` | DIV30 | 6746 | inhibitor, partial curve |
| 22 | `Cc1ccc2c(c1)c1c3n2CCN[C@H]3CCC1` | GB4 | 6746 | inhibitor, partial curve |
| 23 | `Cc1ccc2c(c1)c1c3n2CCN[C@H]3CCC1` | PC26 | 7569 | inhibitor, partial curve |
| 24 | `Cc1ccc2c(c1)c1c3n2CCN[C@H]3CCC1` | W2 | 15101 | inhibitor, single point |
| 25 | `Cc1ccc2c(c1)c1c3n2CCN[C@H]3CCC1` | CP265 | 8912 | inhibitor, partial curve |
| 26 | `Cc1ccc2c(c1)c1c3n2CCN[C@H]3CCC1` | ATS189 | 7943 | inhibitor, partial curve |
| 27 | `Cc1ccc2c(c1)c1c3n2CCN[C@H]3CCC1` | CP297 | 9528 | inhibitor, partial curve |
| 28 | `Cc1ccc2c(c1)c1c3n2CCN[C@H]3CCC1` | PC15 | 3981 | inhibitor, partial curve |
| 29 | `Cc1ccc2c(c1)c1c3n2CCN[C@H]3CCC1` | P94_40 | 8912 | inhibitor, partial curve, poor fit |
| 30 | `Cc1ccc2c(c1)c1c3n2CCN[C@H]3CCC1` | CP335 | 11995 | inhibitor, partial curve, poor fit |
| 31 | `Cc1ccc2c(c1)c1c3n2CCN[C@H]3CCC1` | Dd2 | 12589 | inhibitor, partial curve |
| 32 | `CC(C)CCC(=O)OC1CCC2C3CCC4=CC(=O)CC[C@]4(C)C3CC[C@]12C` (some centres not stated) | PC26 | 4256 | inhibitor, partial curve, poor fit |
| 33 | `CC(C)CCC(=O)OC1CCC2C3CCC4=CC(=O)CC[C@]4(C)C3CC[C@]12C` (some centres not stated) | P94_40 | 17782 | inhibitor, single point |
| 34 | `CC(C)CCC(=O)OC1CCC2C3CCC4=CC(=O)CC[C@]4(C)C3CC[C@]12C` (some centres not stated) | W2 | 13459 | inhibitor, single point |
| 35 | `CC(C)CCC(=O)OC1CCC2C3CCC4=CC(=O)CC[C@]4(C)C3CC[C@]12C` (some centres not stated) | C2A | 12589 | inhibitor, single point |
| 36 | `CC(C)CCC(=O)OC1CCC2C3CCC4=CC(=O)CC[C@]4(C)C3CC[C@]12C` (some centres not stated) | CP247 | 11220 | inhibitor, single point |
| 37 | `CC(C)CCC(=O)OC1CCC2C3CCC4=CC(=O)CC[C@]4(C)C3CC[C@]12C` (some centres not stated) | Dd2 | 10000 | inhibitor, single point |
| 38 | `CC(C)CCC(=O)OC1CCC2C3CCC4=CC(=O)CC[C@]4(C)C3CC[C@]12C` (some centres not stated) | SC27B | 17782 | inhibitor, single point |
| 39 | `CC(C)CCC(=O)OC1CCC2C3CCC4=CC(=O)CC[C@]4(C)C3CC[C@]12C` (some centres not stated) | CP217 | 10000 | inhibitor, single point |
| 40 | `CC(C)CCC(=O)OC1CCC2C3CCC4=CC(=O)CC[C@]4(C)C3CC[C@]12C` (some centres not stated) | CP238 | 10000 | inhibitor, single point |
| 41 | `CC(C)CCC(=O)OC1CCC2C3CCC4=CC(=O)CC[C@]4(C)C3CC[C@]12C` (some centres not stated) | ATS95 | 10000 | inhibitor, single point |
| 42 | `CC(C)CCC(=O)OC1CCC2C3CCC4=CC(=O)CC[C@]4(C)C3CC[C@]12C` (some centres not stated) | DFO2036 | 17782 | inhibitor, single point |
| 43 | `CC(C)CCC(=O)OC1CCC2C3CCC4=CC(=O)CC[C@]4(C)C3CC[C@]12C` (some centres not stated) | AS120 | 14125 | inhibitor, single point |

Repeated from the top, 4 entries:

Result for N=C(N)c1ccc2cc(OC(=O)c3ccc(N=C(N)N)cc3)ccc2c1 [CP265] was fitted potency 17782 nM (inhibitor, single point).
Result for N=C(N)c1ccc2cc(OC(=O)c3ccc(N=C(N)N)cc3)ccc2c1 [CP252] was fitted potency 6310 nM (inhibitor, partial curve).
Result for N=C(N)c1ccc2cc(OC(=O)c3ccc(N=C(N)N)cc3)ccc2c1 [CP297] was fitted potency 13459 nM (inhibitor, single point).
Result for N=C(N)c1ccc2cc(OC(=O)c3ccc(N=C(N)N)cc3)ccc2c1 [CP238] was fitted potency 6310 nM (inhibitor, partial curve).